Experimental data: the supplement of paper PMC6411743
± gives the standard deviation of the averaged measurements. The entries are a selection whose mix differs from that of the whole data set.

Amino acid sequences for entries named in this document (tags omitted). A change or cut given only in a name is not applied to a line headed by its entry.
UniProt Q9NZB8: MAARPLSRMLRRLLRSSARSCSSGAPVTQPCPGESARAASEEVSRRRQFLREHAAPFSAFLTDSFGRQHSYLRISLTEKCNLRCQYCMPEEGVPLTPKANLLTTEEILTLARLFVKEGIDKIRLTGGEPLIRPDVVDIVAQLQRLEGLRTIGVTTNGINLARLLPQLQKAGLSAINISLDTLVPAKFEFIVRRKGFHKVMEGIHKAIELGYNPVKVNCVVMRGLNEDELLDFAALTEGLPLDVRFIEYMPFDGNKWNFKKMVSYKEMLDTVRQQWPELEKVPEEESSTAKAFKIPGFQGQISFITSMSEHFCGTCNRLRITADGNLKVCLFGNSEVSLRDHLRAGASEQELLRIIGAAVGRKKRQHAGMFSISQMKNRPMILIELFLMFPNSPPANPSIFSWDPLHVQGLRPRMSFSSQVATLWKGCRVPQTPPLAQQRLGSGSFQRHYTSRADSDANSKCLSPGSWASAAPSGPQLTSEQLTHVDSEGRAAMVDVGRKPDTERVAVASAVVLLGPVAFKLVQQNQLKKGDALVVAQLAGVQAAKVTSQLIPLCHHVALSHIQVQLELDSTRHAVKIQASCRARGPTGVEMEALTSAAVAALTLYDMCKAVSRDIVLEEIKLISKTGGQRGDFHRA
UniProt Q9NQ89: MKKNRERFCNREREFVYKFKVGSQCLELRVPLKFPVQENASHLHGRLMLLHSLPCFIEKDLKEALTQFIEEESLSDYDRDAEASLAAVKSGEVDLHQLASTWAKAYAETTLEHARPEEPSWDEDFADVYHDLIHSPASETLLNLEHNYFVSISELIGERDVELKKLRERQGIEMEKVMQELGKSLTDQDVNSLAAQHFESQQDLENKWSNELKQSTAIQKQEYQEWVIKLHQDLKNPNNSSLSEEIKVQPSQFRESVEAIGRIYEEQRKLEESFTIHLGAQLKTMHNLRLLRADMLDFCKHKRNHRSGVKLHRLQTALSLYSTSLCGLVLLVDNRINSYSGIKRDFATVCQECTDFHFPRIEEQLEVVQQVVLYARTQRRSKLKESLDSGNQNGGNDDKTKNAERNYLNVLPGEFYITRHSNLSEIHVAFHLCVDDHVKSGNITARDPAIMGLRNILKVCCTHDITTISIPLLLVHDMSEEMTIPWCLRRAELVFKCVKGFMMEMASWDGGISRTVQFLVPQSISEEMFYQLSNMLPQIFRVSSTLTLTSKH
UniProt Q9NVM6: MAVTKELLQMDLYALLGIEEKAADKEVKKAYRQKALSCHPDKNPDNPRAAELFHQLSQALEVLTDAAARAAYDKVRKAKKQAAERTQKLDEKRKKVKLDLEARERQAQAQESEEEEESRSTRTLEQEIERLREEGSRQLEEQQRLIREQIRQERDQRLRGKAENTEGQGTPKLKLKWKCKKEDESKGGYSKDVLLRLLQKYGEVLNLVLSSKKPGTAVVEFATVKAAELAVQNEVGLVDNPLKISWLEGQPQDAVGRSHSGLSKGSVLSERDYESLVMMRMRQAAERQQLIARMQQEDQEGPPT
UniProt Q9NPF5, whole entry: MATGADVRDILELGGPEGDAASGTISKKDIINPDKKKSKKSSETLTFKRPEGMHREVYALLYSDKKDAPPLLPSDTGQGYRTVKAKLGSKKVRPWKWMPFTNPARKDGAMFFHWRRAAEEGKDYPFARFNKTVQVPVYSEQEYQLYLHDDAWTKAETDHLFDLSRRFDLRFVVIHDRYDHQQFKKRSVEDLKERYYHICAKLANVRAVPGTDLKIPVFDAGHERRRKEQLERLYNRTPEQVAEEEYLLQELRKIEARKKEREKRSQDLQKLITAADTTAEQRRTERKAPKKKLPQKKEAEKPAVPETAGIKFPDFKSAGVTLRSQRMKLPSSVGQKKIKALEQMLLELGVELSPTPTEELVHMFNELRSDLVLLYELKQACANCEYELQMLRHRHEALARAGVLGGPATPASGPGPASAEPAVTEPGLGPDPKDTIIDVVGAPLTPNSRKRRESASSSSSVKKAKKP
UniProt Q9NVH1: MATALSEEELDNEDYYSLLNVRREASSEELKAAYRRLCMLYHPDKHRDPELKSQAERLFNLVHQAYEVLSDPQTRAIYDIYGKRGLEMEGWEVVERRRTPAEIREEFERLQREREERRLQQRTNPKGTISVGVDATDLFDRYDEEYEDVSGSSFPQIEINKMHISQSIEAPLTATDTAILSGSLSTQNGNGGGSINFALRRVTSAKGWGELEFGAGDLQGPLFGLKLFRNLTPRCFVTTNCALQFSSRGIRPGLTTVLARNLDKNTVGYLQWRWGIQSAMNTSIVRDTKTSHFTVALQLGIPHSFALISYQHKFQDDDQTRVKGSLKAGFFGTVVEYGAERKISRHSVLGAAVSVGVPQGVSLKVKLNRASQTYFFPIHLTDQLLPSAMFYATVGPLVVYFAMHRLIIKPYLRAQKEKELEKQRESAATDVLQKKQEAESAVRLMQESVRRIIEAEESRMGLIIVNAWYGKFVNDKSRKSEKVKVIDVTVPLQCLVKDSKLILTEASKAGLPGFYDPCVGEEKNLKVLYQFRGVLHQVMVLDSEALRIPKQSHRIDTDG
UniProt Q9NRY6: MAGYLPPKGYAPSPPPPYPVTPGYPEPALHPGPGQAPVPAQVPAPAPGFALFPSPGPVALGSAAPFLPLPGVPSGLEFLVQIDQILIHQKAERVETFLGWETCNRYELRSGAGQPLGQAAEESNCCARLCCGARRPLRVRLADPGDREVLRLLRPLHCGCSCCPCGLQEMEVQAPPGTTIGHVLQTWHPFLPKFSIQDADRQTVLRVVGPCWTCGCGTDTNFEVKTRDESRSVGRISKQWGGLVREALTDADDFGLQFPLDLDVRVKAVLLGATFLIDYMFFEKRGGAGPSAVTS
UniProt Q9NRL2: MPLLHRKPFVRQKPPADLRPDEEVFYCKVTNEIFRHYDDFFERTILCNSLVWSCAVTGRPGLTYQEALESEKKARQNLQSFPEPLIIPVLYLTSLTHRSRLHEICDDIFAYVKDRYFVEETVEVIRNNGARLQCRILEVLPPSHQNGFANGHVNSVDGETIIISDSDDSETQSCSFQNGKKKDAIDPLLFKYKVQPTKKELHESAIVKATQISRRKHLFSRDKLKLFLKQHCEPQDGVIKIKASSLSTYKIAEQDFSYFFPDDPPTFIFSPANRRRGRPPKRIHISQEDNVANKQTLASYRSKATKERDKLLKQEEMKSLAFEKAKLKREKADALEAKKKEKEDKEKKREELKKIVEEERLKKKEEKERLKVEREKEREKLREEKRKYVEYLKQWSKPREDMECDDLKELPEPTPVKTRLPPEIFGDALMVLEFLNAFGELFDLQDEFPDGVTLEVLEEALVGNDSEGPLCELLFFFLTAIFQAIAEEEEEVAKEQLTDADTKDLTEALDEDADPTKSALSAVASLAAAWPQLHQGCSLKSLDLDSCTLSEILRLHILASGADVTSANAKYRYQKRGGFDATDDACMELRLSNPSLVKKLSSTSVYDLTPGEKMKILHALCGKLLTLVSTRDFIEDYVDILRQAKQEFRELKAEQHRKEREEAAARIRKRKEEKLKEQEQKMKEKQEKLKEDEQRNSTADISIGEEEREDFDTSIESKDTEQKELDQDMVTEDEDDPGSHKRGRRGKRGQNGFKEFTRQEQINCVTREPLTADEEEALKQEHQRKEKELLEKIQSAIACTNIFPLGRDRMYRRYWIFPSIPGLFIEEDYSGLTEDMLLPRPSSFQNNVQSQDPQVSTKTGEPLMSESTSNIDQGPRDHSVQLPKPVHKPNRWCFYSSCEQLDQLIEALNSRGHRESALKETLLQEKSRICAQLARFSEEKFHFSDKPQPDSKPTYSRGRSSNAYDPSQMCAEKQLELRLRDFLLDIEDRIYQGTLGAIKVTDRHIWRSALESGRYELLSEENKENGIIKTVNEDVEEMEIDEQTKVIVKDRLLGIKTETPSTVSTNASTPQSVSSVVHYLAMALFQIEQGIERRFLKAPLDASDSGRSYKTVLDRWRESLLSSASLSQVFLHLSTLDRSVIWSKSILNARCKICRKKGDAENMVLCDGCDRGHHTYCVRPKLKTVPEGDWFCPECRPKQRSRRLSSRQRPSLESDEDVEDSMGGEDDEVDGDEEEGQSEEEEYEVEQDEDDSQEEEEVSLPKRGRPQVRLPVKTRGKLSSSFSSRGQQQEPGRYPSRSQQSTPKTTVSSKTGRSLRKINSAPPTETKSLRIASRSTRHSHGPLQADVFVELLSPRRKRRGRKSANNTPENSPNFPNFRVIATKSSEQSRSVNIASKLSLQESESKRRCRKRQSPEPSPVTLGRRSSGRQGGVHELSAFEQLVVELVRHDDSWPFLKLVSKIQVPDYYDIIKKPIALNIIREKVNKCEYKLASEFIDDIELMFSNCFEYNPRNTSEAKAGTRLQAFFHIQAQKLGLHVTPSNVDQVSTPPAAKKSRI
UniProt Q9NUV9: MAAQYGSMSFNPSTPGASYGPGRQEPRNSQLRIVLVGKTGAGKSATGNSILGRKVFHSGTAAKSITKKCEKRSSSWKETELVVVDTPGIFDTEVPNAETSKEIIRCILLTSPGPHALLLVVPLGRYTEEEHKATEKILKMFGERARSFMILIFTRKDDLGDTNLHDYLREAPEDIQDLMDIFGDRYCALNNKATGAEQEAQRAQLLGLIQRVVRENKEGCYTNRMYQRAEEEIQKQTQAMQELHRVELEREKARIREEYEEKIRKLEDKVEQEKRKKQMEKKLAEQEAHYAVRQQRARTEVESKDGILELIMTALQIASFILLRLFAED
UniProt Q9NRH2: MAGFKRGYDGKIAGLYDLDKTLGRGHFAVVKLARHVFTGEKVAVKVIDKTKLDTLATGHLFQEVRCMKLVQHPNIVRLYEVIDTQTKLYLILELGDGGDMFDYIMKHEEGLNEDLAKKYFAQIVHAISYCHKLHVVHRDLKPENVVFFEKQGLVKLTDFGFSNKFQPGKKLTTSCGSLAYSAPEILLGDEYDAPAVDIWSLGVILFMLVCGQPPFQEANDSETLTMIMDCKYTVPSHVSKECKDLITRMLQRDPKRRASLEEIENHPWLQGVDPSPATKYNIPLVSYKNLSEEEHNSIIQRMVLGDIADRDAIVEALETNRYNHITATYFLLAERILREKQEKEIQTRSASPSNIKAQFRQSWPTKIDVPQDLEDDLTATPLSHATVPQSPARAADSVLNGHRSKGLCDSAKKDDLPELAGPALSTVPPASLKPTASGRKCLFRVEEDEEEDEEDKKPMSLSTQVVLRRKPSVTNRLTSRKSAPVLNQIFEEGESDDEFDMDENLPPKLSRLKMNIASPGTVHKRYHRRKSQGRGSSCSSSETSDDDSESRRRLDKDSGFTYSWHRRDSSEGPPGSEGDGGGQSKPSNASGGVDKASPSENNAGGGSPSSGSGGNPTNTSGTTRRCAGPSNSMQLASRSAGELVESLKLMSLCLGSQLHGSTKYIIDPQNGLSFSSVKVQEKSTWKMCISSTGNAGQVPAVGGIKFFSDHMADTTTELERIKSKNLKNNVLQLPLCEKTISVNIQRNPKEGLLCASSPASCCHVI
UniProt Q9NZD8: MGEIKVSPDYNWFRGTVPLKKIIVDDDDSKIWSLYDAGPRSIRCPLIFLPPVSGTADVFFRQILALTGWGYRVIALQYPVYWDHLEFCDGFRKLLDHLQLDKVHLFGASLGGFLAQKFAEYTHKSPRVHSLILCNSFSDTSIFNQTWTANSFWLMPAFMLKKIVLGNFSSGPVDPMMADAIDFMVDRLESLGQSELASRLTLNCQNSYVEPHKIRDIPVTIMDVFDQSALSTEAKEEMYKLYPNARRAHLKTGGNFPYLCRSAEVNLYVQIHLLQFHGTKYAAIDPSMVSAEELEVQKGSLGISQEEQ
UniProt Q9NQT4, whole entry: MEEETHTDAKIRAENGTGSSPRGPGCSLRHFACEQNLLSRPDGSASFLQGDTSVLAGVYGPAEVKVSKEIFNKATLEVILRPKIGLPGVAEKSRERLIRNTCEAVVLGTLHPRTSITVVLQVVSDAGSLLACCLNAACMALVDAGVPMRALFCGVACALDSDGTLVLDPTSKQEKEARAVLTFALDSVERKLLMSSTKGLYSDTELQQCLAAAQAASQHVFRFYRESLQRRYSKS
UniProt Q9NQT5, whole entry: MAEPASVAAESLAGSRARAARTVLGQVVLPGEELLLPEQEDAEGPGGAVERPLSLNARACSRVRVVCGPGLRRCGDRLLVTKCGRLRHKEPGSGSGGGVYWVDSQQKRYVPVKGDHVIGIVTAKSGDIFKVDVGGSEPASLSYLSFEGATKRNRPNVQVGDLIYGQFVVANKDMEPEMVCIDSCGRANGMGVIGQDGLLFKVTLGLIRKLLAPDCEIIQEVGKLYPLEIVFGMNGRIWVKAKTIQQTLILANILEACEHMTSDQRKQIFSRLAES
UniProt Q9NXA8: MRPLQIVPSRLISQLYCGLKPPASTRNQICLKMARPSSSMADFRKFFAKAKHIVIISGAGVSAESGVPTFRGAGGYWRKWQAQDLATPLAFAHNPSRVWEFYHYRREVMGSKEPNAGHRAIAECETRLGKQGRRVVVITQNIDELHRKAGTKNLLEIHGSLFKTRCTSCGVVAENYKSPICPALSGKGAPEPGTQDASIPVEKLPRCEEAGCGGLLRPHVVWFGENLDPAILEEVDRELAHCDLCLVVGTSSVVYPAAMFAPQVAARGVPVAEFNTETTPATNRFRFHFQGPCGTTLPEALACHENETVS

Compound: Nc1ncnc2c1ncn2[C@@H]1O[C@H](COP(=O)(O)OP(=O)(O)OP(=O)(O)O)[C@@H](O)[C@H]1O [adenosine triphosphate]
Assay: NP40-soluble protein abundance relative to vehicle (solubility fold change) (ratio); higher = more soluble protein in presence of ATP
Summary of the method: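 Jurkat crude lysate prepared with a Dounce homogeniser was treated at eight concentrations spanning 0.1 to 10 mM, 10 min at room temperature then 3 min at 37 °C. Solubilisation with 0.8% NP40 and benzonase and ultracentrifugation preceded TMT labelling of the supernatant for LC-MS/MS. Fold change against the detergent-processed vehicle was determined per replicate from vsn-normalised intensities, across three independent experiments.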

Target	NP40-soluble protein abundance (concentration: 1mM)	NP40-soluble protein abundance (concentration: 2mM)	NP40-soluble protein abundance (concentration: 4mM)	NP40-soluble protein abundance (concentration: 6mM)	NP40-soluble protein abundance (concentration: 8mM)	NP40-soluble protein abundance (concentration: 10mM)
UniProt Q9NZB8 and related entries	0.991 ± 0.026	0.985 ± 0.017	0.94 ± 0.031	0.941 ± 0.052	0.965 ± 0.021	0.965 ± 0.029
UniProt Q9NT62 and related entries	0.964 ± 0.032	0.973 ± 0.023	0.957 ± 0.018	0.978 ± 0.036	0.944 ± 0.055	0.918 ± 0.044
UniProt Q9NZB2 and related entries	1.05 ± 0.038	1.01 ± 0.035	1.04 ± 0.05	1.08 ± 0.088	1.12 ± 0.055	1.15 ± 0.075
C12orf4 (UniProt Q9NQ89)	1.02 ± 0.15	0.973 ± 0.2	1.03 ± 0.18	0.997 ± 0.17	0.896 ± 0.032	1.01 ± 0.12
DNAJC17 (UniProt Q9NVM6)	0.957 ± 0.048	0.951 ± 0.015	1.02 ± 0.064	1.04 ± 0.026	1.07 ± 0.067	0.988 ± 0.071
DMAP1 (UniProt Q9NPF5)	0.968 ± 0.028	0.957 ± 0.017	0.957 ± 0.037	0.997 ± 0.11	1.04 ± 0.042	1.06 ± 0.024
FAM118A (UniProt Q9NWS6)	0.967 ± 0.045	0.97 ± 0.03	1 ± 0.023	0.943 ± 0.052	0.965 ± 0.095	0.941 ± 0.055
UniProt Q9NVH1 and related entries	1.01 ± 0.056	1.01 ± 0.058	0.955 ± 0.091	1 ± 0.063	1.02 ± 0.035	1.01 ± 0.039
PLSCR3 (UniProt Q9NRY6)	1.05 ± 0.011	1.02 ± 0.056	1.02 ± 0.032	1.04 ± 0.061	1.01 ± 0.066	0.988 ± 0.032
BAZ1A (UniProt Q9NRL2)	1.11 ± 0.021	1.11 ± 0.019	1.11 ± 0.025	1.16 ± 0.051	1.15 ± 0.026	1.15 ± 0.038
UniProt Q9NX14 and related entries	0.906 ± 0.096	0.894 ± 0.094	0.87 ± 0.022	0.888 ± 0.15	0.893 ± 0.022	0.826 ± 0.084
GIMAP4 (UniProt Q9NUV9)	1 ± 0.039	0.975 ± 0.059	0.944 ± 0.065	0.992 ± 0.09	0.967 ± 0.087	0.954 ± 0.074
SNRK (UniProt Q9NRH2)	1.08 ± 0.017	1 ± 0.085	1.01 ± 0.09	0.99 ± 0.038	0.969 ± 0.068	0.985 ± 0.035
DPP3 (UniProt Q9NY33)	0.999 ± 0.063	0.971 ± 0.067	0.932 ± 0.046	0.946 ± 0.12	0.956 ± 0.032	0.938 ± 0.056
UniProt Q9NZD8 and related entries	1.05 ± 0.06	1.03 ± 0.06	0.981 ± 0.024	0.945 ± 0.075	0.964 ± 0.035	0.975 ± 0.036
EXOSC5 (UniProt Q9NQT4)	1.09 ± 0.049	1.1 ± 0.041	1.15 ± 0.1	1.19 ± 0.073	1.24 ± 0.086	1.27 ± 0.097
ALKBH4 (UniProt Q9NXW9)	1.1 ± 0.17	1.06 ± 0.069	1.01 ± 0.071	1.04 ± 0.078	1.05 ± 0.066	1.03 ± 0.08
EXOSC3 (UniProt Q9NQT5)	1.04 ± 0.048	1.09 ± 0.024	1.11 ± 0.036	1.16 ± 0.025	1.24 ± 0.013	1.26 ± 0.026
POGK (UniProt Q9P215)	0.96 ± 0.16	0.981 ± 0.065	1.02 ± 0.0078	0.948 ± 0.054	0.947 ± 0.17	1.02 ± 0.12
UniProt Q9NX47	0.997 ± 0.092	1.05 ± 0.042	1.04 ± 0.069	0.972 ± 0.13	1.05 ± 0.13	0.994 ± 0.047
UniProt Q9NRL3 and related entries	1 ± 0.033	0.992 ± 0.026	0.96 ± 0.057	1.01 ± 0.086	0.985 ± 0.019	0.998 ± 0.073
LYAR (UniProt Q9NX58)	0.976 ± 0.07	0.981 ± 0.092	1.07 ± 0.049	1.1 ± 0.026	1.07 ± 0.035	1.25 ± 0.028
NLE1 (UniProt Q9NVX2)	1 ± 0.086	1.01 ± 0.1	1.03 ± 0.094	0.962 ± 0.095	0.964 ± 0.055	1.01 ± 0.068
GGA3 (UniProt Q9NZ52)	0.96 ± 0.051	0.987 ± 0.044	0.934 ± 0.018	0.981 ± 0.041	0.943 ± 0.013	0.917 ± 0.037
UniProt Q9NVU7 and related entries	1.02 ± 0.012	1.05 ± 0.02	1.06 ± 0.03	1.06 ± 0.025	1.08 ± 0.014	1.15 ± 0.031
UniProt Q9P1Y5 and related entries	1.02 ± 0.13	1.03 ± 0.064	1.11 ± 0.099	1.13 ± 0.066	1.05 ± 0.071	1.12 ± 0.071
SIRT5 (UniProt Q9NXA8)	0.964 ± 0.068	1.01 ± 0.032	1.01 ± 0.025	0.992 ± 0.037	0.955 ± 0.025	0.985 ± 0.03
HINT3 (UniProt Q9NQE9)	0.97 ± 0.064	1 ± 0.073	0.982 ± 0.059	0.962 ± 0.061	1 ± 0.097	0.988 ± 0.095
RAD18 (UniProt Q9NS91)	1.14 ± 0.028	1.14 ± 0.025	1.18 ± 0.016	1.18 ± 0.021	1.17 ± 0.0083	1.21 ± 0.024
UniProt Q9NYV4 and related entries	1.28 ± 0.075	1.35 ± 0.072	1.44 ± 0.085	1.56 ± 0.14	1.5 ± 0.11	1.56 ± 0.11

Record cards, as listed above. Values in the order: NP40-soluble protein abundance (concentration: 1mM)	NP40-soluble protein abundance (concentration: 2mM)	NP40-soluble protein abundance (concentration: 4mM)	NP40-soluble protein abundance (concentration: 6mM)	NP40-soluble protein abundance (concentration: 8mM)	NP40-soluble protein abundance (concentration: 10mM)
DPP3 (UniProt Q9NY33) as listed: 0.999 ± 0.063	0.971 ± 0.067	0.932 ± 0.046	0.946 ± 0.12	0.956 ± 0.032	0.938 ± 0.056
NLE1 (UniProt Q9NVX2) as listed: 1 ± 0.086	1.01 ± 0.1	1.03 ± 0.094	0.962 ± 0.095	0.964 ± 0.055	1.01 ± 0.068
